This is an account of results in PubChem BioAssay AID1347426 (Functional Genomics Laboratory (NCATS/FGL), 2020).

Screen size: about 31,000 sequences; about 1,400 (4.5%) were called active.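 The calls were made as follows: active = median seed-adjusted z-score above 1 or below -1; inactive = the rest.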 The list shows a part of the results.

A short description of the assay: Novel Modifiers of Survival Motor Neuron (SMN) Protein: Gene Identification via Genome-wide siRNA Screen.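 Also: luminescence tracks full-length SMN protein made from the SMN2 reporter.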 Conditions: HEK293T SMN2-luciferase reporter, siRNA knockdown, 72 h; actives lie on both sides. Put shortly:
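Steps: spot 1 pmol siRNA, add Lipofectamine RNAiMax in serum-free DMEM, seed HEK293T SMN2–luciferase reporter cells; incubate 72 h at 37 °C; add ONE-Glo; normalize luminescence to control siRNA, log10, MAD. Candidates: |MAD| > 1.0.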
For orientation: A reporter such as luciferase makes a cellular process visible.
As to GGAAUUCUUUGGGAGUGGATT against DNAJB2, the median seed-adjusted z-score was inactive: 0.

Take CGCUUACUACCUUCAGUAUTT against SOD2: the median seed-adjusted z-score was inactive: -0.558.

On to CGAAAUACGUGGAACUCAUTT against ACE, for which the median seed-adjusted z-score was inactive: 0.0874.

Take CGAUCGAUGUCUUACAGCATT against ZDHHC5: the median seed-adjusted z-score was inactive: -0.307.

With CCCUGAGAAUGAGAAUGCATT against PLXNA1, the median seed-adjusted z-score is inactive: 0.

Consider GGCACUUUAUGCUUCAGAUTT against PDE7B, for which the median seed-adjusted z-score was inactive: 0.0616.

Turning to CCAGCAAGGAUGCAGCUAATT against CELSR3, the median seed-adjusted z-score was inactive: 0.

On to CCAUCUCUUUGGUAGUACUTT against TBC1D23, for which the median seed-adjusted z-score was inactive: 0.0932.

Turning to GCCCAUAUGUUGUAAAGUATT against STK3, the median seed-adjusted z-score is inactive: 0.108.

Take GCAACAACCAGUGUAUUCATT against TRIM3: the median seed-adjusted z-score is inactive: -0.215.

Consider CCAGGUGUCAAGAAGCCUATT against CST2, for which the median seed-adjusted z-score is inactive: -0.411.

Regarding GAGUCCAAUUUGUCCAGCUTT against SIRT5, the median seed-adjusted z-score was inactive: 0.39.

For CAGAUGCACGAGAAAUCCATT against APLNR, the median seed-adjusted z-score is inactive: 0.794.

On to AGAAGGUCAUCAAUACGGATT against SLC34A1, for which the median seed-adjusted z-score is inactive: 0.139.

Take CGACCUUGCAGAUUUUGAATT against FGL1: the median seed-adjusted z-score is inactive: -0.259.

As to CGAAAUGAUCGAAAACUGUTT against GPR37, the median seed-adjusted z-score was inactive: -0.0447.

With CUACAACUGUCACCGUUAATT against DSC1, the median seed-adjusted z-score is inactive: -0.151.

As for GAGUUAUCAUAGGUCAGAATT against HSD17B4, the median seed-adjusted z-score was inactive: 0.

On to GAAAUGGACCAGACACUAATT against POU2F2, for which the median seed-adjusted z-score was inactive: 0.163.

CCUAUUCUGGAGGCAAUAATT against USP38: the median seed-adjusted z-score is inactive: 0.216.

In the case of GGAAAUGCGUGAAGCUUUUTT against CHIA, the median seed-adjusted z-score was inactive: 0.479.

As for GCAAGGUCCACACCCAAAATT against NPFF, the median seed-adjusted z-score is inactive: -0.631.

Take GCUCGGUCUGGUGAACUAATT against KLF3: the median seed-adjusted z-score is inactive: 0.628.

For the sequence GGAUACUCUUCCUAUUCAATT against OMA1, the median seed-adjusted z-score was inactive: 0.

With ACCCUUUGCUCAAUAAACATT against ZNF580, the median seed-adjusted z-score was inactive: 0.437.

Turning to GACAAUCAAUUCACAUUUUTT against PKIG, the median seed-adjusted z-score was inactive: 0.0916.

Consider GGAUUCAUCUGGGAUAAAATT against F8, for which the median seed-adjusted z-score is inactive: -0.0992.

For the sequence CAGAACCUGUUGUAGAAAATT against GSPT2, the median seed-adjusted z-score is inactive: 0.846.

As to GGGCUGGACCAACUCAACATT against B4GALNT1, the median seed-adjusted z-score is inactive: 0.0265.

For the sequence GAAUGCCUGCGGAACAAGATT against NLGN4X, the median seed-adjusted z-score was inactive: -0.1.
